# In the supplement of paper PMC10689618:
# Structures can show the parent of a compound that is named as a salt. Some of the results follow. Repeats are few or missing, and single values can be far off.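 Primary human fetal astrocytes engulfed labelled rat cortical synaptosomes, measured as a red/green ratio corrected for calcein live-cell signal and scaled to the plate median. Toxicity meant calcein falling over 30%; decreased phagocytosis meant below 70% of median above 5 µM.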
# How the values were obtained:
# Details in all cases: 24 h
# Human fetal astrocytes [1] = assay: loss of total cells relative to no-compound high-control median (toxicity); higher = more toxic (fewer cells)
# Human fetal astrocytes [2] = assay: as above; remark: listed apart in the source
# Human fetal astrocytes [3] = assay: synaptosome phagocytosis (pHrodo/calcein intensity ratio) relative to plate median of data wells; higher = more phagocytosis
# Human fetal astrocytes [4] = assay: as above; remark: listed apart in the source
Structure (SMILES),loss of total cells (Human fetal astrocytes [1]; 1.39 µM),loss of total cells (Human fetal astrocytes [1]; 2.78 µM),loss of total cells (Human fetal astrocytes [1]; 5.56 µM),loss of total cells (Human fetal astrocytes [1]; 11.11 µM),loss of total cells (Human fetal astrocytes [1]; 22.22 µM),loss of total cells (Human fetal astrocytes [2]; 1.39 µM),loss of total cells (Human fetal astrocytes [2]; 2.78 µM),loss of total cells (Human fetal astrocytes [2]; 5.56 µM),loss of total cells (Human fetal astrocytes [2]; 11.11 µM),loss of total cells (Human fetal astrocytes [2]; 22.22 µM),synaptosome phagocytosis (Human fetal astrocytes [3]; 1.39 µM),synaptosome phagocytosis (Human fetal astrocytes [3]; 2.78 µM),synaptosome phagocytosis (Human fetal astrocytes [3]; 5.56 µM),synaptosome phagocytosis (Human fetal astrocytes [3]; 11.11 µM),synaptosome phagocytosis (Human fetal astrocytes [3]; 22.22 µM),synaptosome phagocytosis (Human fetal astrocytes [4]; 1.39 µM),synaptosome phagocytosis (Human fetal astrocytes [4]; 2.78 µM),synaptosome phagocytosis (Human fetal astrocytes [4]; 5.56 µM),synaptosome phagocytosis (Human fetal astrocytes [4]; 11.11 µM),synaptosome phagocytosis (Human fetal astrocytes [4]; 22.22 µM)
CC1=C(CC(=O)O)c2cc(F)ccc2/C1=C\c1ccc([S+](C)[O-])cc1 (stereo not given) [Sulindac],-20.8%,-16.5%,-2.8%,-18.8%,-27.2%,5.6%,-5.8%,-6.3%,15.3%,37.4%,117%,106%,79.5%,102%,132%,88.1%,105%,112%,92.6%,116%
CC1=C(/C=C/C(C)=C/C=C/C(C)=C/C(=O)O)C(C)(C)CCC1 [Retinoic acid],-14.6%,-35.6%,-15.7%,-14.2%,14%,20.2%,-18.3%,-6.2%,44.9%,7.2%,169%,125%,101%,135%,82%,123%,124%,104%,108%,116%
CCN(CC)C(=S)SSC(=S)N(CC)CC [Tetraethylthiuram disulfide],32.6%,27.8%,40.4%,40.2%,19.8%,38.3%,41%,14.6%,23.3%,70.2%,22.1%,29.8%,21.5%,38.6%,30.3%,47.3%,26.2%,53.7%,24%,37%
Nc1ncn([C@@H]2O[C@H](CO)[C@@H](O)[C@H]2O)c(=O)n1 [5-azacytidine],-1.1%,-20.2%,-2.3%,-26.5%,13.2%,-12.1%,-38.1%,6.8%,39%,-3.4%,106%,90.8%,134%,118%,104%,96.9%,104%,115%,125%,113%
CC(C)Cc1ccc(C(C)C(=O)O)cc1 (racemic) [(±)-Ibuprofen],-12.8%,5.9%,-3.3%,-5.7%,0%,-2.1%,-34.2%,-16%,2.6%,-21.6%,90.8%,121%,114%,61.3%,58.3%,106%,117%,101%,139%,116%
"Nc1c2c(nc3ccccc13)CCCC2 [9-Amino-1,2,3,4-tetrahydroacridine hydrochloride]",-22.4%,-17.7%,-17.1%,-13.9%,10.2%,12.7%,10%,-9.9%,48.4%,13%,94.2%,74.8%,83.9%,107%,63.3%,97.7%,112%,96.6%,87%,120%
CCCN(CCC)C(=O)C(CCC(=O)O)NC(=O)c1ccccc1 (stereo not given) [Proglumide],0.5%,-3.2%,15.5%,9.5%,11.2%,-5%,12.5%,7.5%,3.9%,-4%,104%,117%,99.5%,96.1%,103%,97.2%,74.4%,121%,89.6%,105%
Cn1c(=O)c2c(ncn2C)n(C)c1=O [Caffeine],-32.7%,-23.8%,-19.8%,9.4%,5.6%,-29.9%,-15.5%,-6.9%,-10.9%,-6.8%,112%,101%,86.3%,154%,106%,128%,76.1%,80%,111%,106%
CC(C)[N+](C)(CCOC(=O)C1c2ccccc2Oc2ccccc21)C(C)C [Propantheline bromide],-28.3%,-20.1%,-6.2%,-13.4%,-0.8%,-1.5%,-15.9%,-31.4%,-0.3%,23.4%,102%,107%,120%,107%,110%,90%,132%,120%,130%,121%
O=C1c2c(O)ccc(O)c2C(=O)c2c(NCCNCCO)ccc(NCCNCCO)c21 [Mitoxantrone],-23.2%,-12.2%,3.3%,27.6%,77.6%,-6.5%,-32.5%,0%,67.9%,98.1%,14.2%,4.8%,7.2%,0%,0%,29%,14.2%,2%,0%,0%
CN(C)CCOC(C)(c1ccccc1)c1ccccn1 (stereo not given) [Doxylamine succinate],1.3%,-7.7%,14%,-11.2%,-16%,3.9%,-22%,-13.9%,0.3%,-24%,105%,99.5%,93%,94.5%,81.2%,103%,92.2%,108%,113%,112%
CCC(NC(C)C)C(O)c1ccc(O)c(O)c1 (stereo not given) [Isotharine mesylate],-3.3%,-0.5%,9.9%,12.4%,24.3%,-19.9%,-8.6%,-20.6%,0.6%,7.8%,96.7%,88.8%,90.6%,72.2%,59.1%,99.7%,96%,121%,84.9%,84.9%
CC(=O)CCCCn1c(=O)c2c(ncn2C)n(C)c1=O [Pentoxifylline],-28%,-7.7%,14.6%,5.7%,12.1%,30.1%,0%,-30.5%,32.3%,-7%,101%,87.6%,72.1%,114%,40.7%,68.6%,104%,103%,128%,109%
C[N+](C)(C)CCOC(N)=O [Carbachol],-14.3%,7.2%,-1.4%,-18.4%,-7.1%,-7.5%,-24.7%,-9.9%,11.7%,-15.3%,102%,100%,111%,86.1%,95.9%,113%,130%,101%,108%,123%
CS(=O)(=O)Nc1ccc([N+](=O)[O-])cc1Oc1ccccc1 [Nimesulide],-29.9%,-27.6%,2.3%,9.5%,0.9%,22%,14.8%,4.3%,-5.4%,21.2%,109%,131%,104%,104%,80%,103%,72.7%,87.5%,112%,117%
O=C(/C=C/c1ccc(O)cc1)c1ccc(O)cc1O [Isoliquiritigenin],-8.1%,3.2%,14.6%,21.9%,13.1%,4.9%,9%,1.5%,18.9%,23.7%,118%,130%,122%,77.5%,55.8%,126%,119%,98.6%,115%,112%
O=C(O)CCc1nc(-c2ccccc2)c(-c2ccccc2)o1 [Oxaprozin],-28.9%,13.1%,8%,11.4%,4.7%,-25.8%,-13.5%,-1.2%,47.5%,-4%,122%,106%,96.7%,121%,88.2%,95.1%,118%,109%,100%,89.3%
C[C@H](CS)C(=O)N1CCC[C@H]1C(=O)O [Captopril],-1.5%,-3.6%,-23.5%,-8.5%,-3.4%,20.5%,-5.8%,-8.4%,18.2%,14.9%,109%,108%,102%,106%,120%,158%,113%,106%,99.4%,116%
NC(N)=NC(N)=Nc1ccccc1 [1-Phenylbiguanide],-26.4%,-20.7%,-5.6%,-14.9%,-28%,-17.2%,-4%,-6.6%,1.4%,11.9%,119%,67.2%,106%,113%,110%,106%,101%,97.2%,115%,150%
N[C@H]1CONC1=O [L-Cycloserine],-24.6%,-13.2%,-20.7%,-14.8%,-2.6%,-15.7%,-6.4%,-30.7%,-5.5%,33.7%,98%,86.7%,154%,99.2%,118%,101%,91.1%,94.5%,95.4%,112%
CN1CCN(CCCN2c3ccccc3Sc3ccc(C(F)(F)F)cc32)CC1 [Trifluoperazine dihydrochloride],-15.2%,-33.2%,0.6%,18%,22.2%,27%,2.4%,-18.1%,8.4%,51.4%,45.7%,53.2%,49.5%,34.2%,8%,87.6%,99.9%,82.8%,65.2%,41.9%
O=C(O)CN(CCN(CC(=O)O)CC(=O)O)CCN(CC(=O)O)CC(=O)O [Diethylenetriaminepentaacetic acid],-2.9%,13.7%,-8.2%,-32.7%,7.2%,-19.9%,-3.4%,0.9%,-30.5%,-8.5%,117%,115%,117%,87.4%,88.5%,123%,119%,123%,96.2%,133%

# 2 neighbouring records from above:
Structure (SMILES),loss of total cells (Human fetal astrocytes [1]; 1.39 µM),loss of total cells (Human fetal astrocytes [1]; 2.78 µM),loss of total cells (Human fetal astrocytes [1]; 5.56 µM),loss of total cells (Human fetal astrocytes [1]; 11.11 µM),loss of total cells (Human fetal astrocytes [1]; 22.22 µM),loss of total cells (Human fetal astrocytes [2]; 1.39 µM),loss of total cells (Human fetal astrocytes [2]; 2.78 µM),loss of total cells (Human fetal astrocytes [2]; 5.56 µM),loss of total cells (Human fetal astrocytes [2]; 11.11 µM),loss of total cells (Human fetal astrocytes [2]; 22.22 µM),synaptosome phagocytosis (Human fetal astrocytes [3]; 1.39 µM),synaptosome phagocytosis (Human fetal astrocytes [3]; 2.78 µM),synaptosome phagocytosis (Human fetal astrocytes [3]; 5.56 µM),synaptosome phagocytosis (Human fetal astrocytes [3]; 11.11 µM),synaptosome phagocytosis (Human fetal astrocytes [3]; 22.22 µM),synaptosome phagocytosis (Human fetal astrocytes [4]; 1.39 µM),synaptosome phagocytosis (Human fetal astrocytes [4]; 2.78 µM),synaptosome phagocytosis (Human fetal astrocytes [4]; 5.56 µM),synaptosome phagocytosis (Human fetal astrocytes [4]; 11.11 µM),synaptosome phagocytosis (Human fetal astrocytes [4]; 22.22 µM)
CCC(NC(C)C)C(O)c1ccc(O)c(O)c1 (stereo not given) [Isotharine mesylate],-3.3%,-0.5%,9.9%,12.4%,24.3%,-19.9%,-8.6%,-20.6%,0.6%,7.8%,96.7%,88.8%,90.6%,72.2%,59.1%,99.7%,96%,121%,84.9%,84.9%
CC(=O)CCCCn1c(=O)c2c(ncn2C)n(C)c1=O [Pentoxifylline],-28%,-7.7%,14.6%,5.7%,12.1%,30.1%,0%,-30.5%,32.3%,-7%,101%,87.6%,72.1%,114%,40.7%,68.6%,104%,103%,128%,109%
